Results: PubChem BioAssay AID1347423 (Functional Genomics Laboratory (NCATS/FGL), 2020)
Out of some 52,000 sequences screened, about 210 (0.4%) were called active.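 How the source made its calls: active means gene whose silencing raises cell survival under the drug, median off-target-corrected z-score across its silencing RNAs 2 or more; inactive means the rest.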 The list shows a part of the results.

Experiment: Resistance to Poly (ADP-Ribose) Polymerase inhibitor: Gene Identification via Genome-wide siRNA Screen
Details: mouse BRCA2 R2336H ES cells, olaparib, CellTiter-Glo viability; active compounds read high
In short: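 Mouse BRCA2 R2336H ES cells were reverse-transfected with siRNA (20 nM final), treated at 48 h with 500 nM olaparib, and read by CellTiter-Glo after 72 h. Scores: MAD-based z per siRNA, median per gene, seed off-target correction.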
With “GGAAGAGUUGGAAAUUUACTT against 1110015E22Rik” the z-score was inactive: 0.0768.
In the case of GGAGGUAUACAGUAAGGAGTT against Fbxo32, the z-score is reported as inactive: -0.0151.
For GCGGGCCAUAAAGAGACAUTT against Timm17a, the z-score was inactive: 0.0558.
In the case of CGUCCAUCAAACGAUCACCTT against Alox5, the z-score is reported as inactive: 0.425.
With “CCCUACUCGAAUUUAUAGCTT against 1810017F10Rik” the z-score was inactive: 0.231.
With CGAGGUCAAUAUCAUUCCATT against Serpinb11 the z-score was inactive: 0.759.
In the case of “GGCAAACCUCAAUGAGUUUTT against 4933402B14Rik”, the z-score is reported as inactive: 1.05.
For “GCUUCAGCCAUUUCACCUUTT against 1500026D16Rik”, the z-score was inactive: 0.938.
For “GGCUUAGUAAGUGCAAAUATT against 2010208K18Rik”, the z-score was inactive: -1.15.
For GCUCAUAGGCCUCAUCGUUTT against Piwil1, the z-score was inactive: -0.0313.
For GGAACUGCUAAUCAACCAUTT against Zmynd10, the z-score was inactive: -1.55.
In the case of GGUCAUUGAUGGCUUUUUUTT against Mus81, the z-score is reported as inactive: -0.876.
For “CCAAUAUGGUUUGUGGACUTT against 3010021M21Rik”, the z-score was inactive: 1.23.
With GGACACAGAUAGAAAUACUTT against Glo1 the z-score was inactive: 0.208.
With GGAAUCCUCAUUCUGGAUGTT against Abcg8 the z-score was inactive: 0.783.
For GGGCCACAGCUUAAUACUGTT against Ptov1, the z-score was inactive: -1.1.
In the case of GGACAGAAAGAUUGUGAUCTT against Arhgap12, the z-score is reported as inactive: 0.949.
In the case of CGGUCAAGGACAGGAAGUGTT against Eif4b, the z-score is reported as inactive: -1.15.
With GGAACAACUGAGAAGCACCTT against Hist1h2bc the z-score was inactive: 0.551.
In the case of ACCUUUGUCCUUUUGUUGUTT against Defb15, the z-score is reported as inactive: -1.23.
For GGCACUUUGAUUGUACAAUTT against Dyrk4, the z-score was inactive: 0.391.
In the case of GGGAACAGCCUUCACAAUGTT against Pomt2, the z-score is reported as inactive: -0.953.
In the case of GCCCGAUUUGGCCUAAGUGTT against BC029214, the z-score is reported as inactive: -2.77.
In the case of “GCAGUUCGUAAAAAGGAAATT against 2810429O05Rik”, the z-score is reported as inactive: -0.0848.
For “GCUAUUUGCACUGAAAUAGTT against B230365F16Rik”, the z-score was inactive: 0.931.
For GGAUGUGCGAUAUAAACCATT against Prlpb, the z-score was inactive: -1.03.
With GGUCUUUGUCCUCAUUUUCTT against Olfr1203 the z-score was inactive: 0.784.
With GGGUUACACAUCAUUUUGGTT against Golph3 the z-score was inactive: 0.872.
With GGCCAUUACCCAUGAGACUTT against Cd63 the z-score was inactive: -1.44.
For “CCACUUGCGUGUACCACUUTT against 9530008L14Rik”, the z-score was inactive: -0.429.
In the case of GCUCCAAAUUAAAUUUUGCTT against Isgf3g, the z-score is reported as inactive: 0.286.
For GGGAAAAUUCCAGAAUUGUTT against Serpinb9c, the z-score was inactive: 0.98.
In the case of GGAUCUUUCUUUUCUCUCUTT against Rab6b, the z-score is reported as inactive: -0.123.
In the case of “GGAUUUAUUUCCGAUUCGATT against A530023G15Rik”, the z-score is reported as inactive: -0.846.
With GGGAAACUGUAUUAAUCUCTT against Foxc1 the z-score was inactive: -0.267.
For “GCCGCUAUGUUGAUGGACUTT against 5730454B08Rik”, the z-score was inactive: -0.156.
With CCGGGAAUAUGACCAGUACTT against Cd3g the z-score was inactive: -0.45.
In the case of CCACACUGAGGACUAUAUUTT against Cstf1, the z-score is reported as inactive: 0.623.
With GGAACAAAGAGGUUCUAGGTT against Olfr202 the z-score was inactive: 0.188.
With CCAGGUGUAUAAUAAGAUGTT against Atp8b3 the z-score was inactive: 0.949.
With GGAGCCUCACUUCUAUCUUTT against Foxk1 the z-score was inactive: -0.584.
For “CCUGCUCAGGACGACUUUUTT against 2010016F14Rik”, the z-score was inactive: -0.453.
With GCGGUAUCCUAGCUGUGAATT against Gm1100 the z-score was inactive: -0.265.
In the case of GGAUUCAAAGAAAAUCCUGTT against B3galt2, the z-score is reported as inactive: 0.0642.
In the case of GCUCUCAGGUCCUAAGAGATT against AU044919, the z-score is reported as inactive: 0.494.
With GGUAGAACCCAUGACAGCUTT against Ube1l the z-score was inactive: 1.94.
With GGAUGCCUUCUAUACACUATT against Hras1 the z-score was inactive: 0.202.
In the case of GCACUGAGUACUGCCUCAUTT against Otop3, the z-score is reported as inactive: -0.322.
With GGUUAUUUUGGGAAUAUUCTT against Ndufab1 the z-score was inactive: 1.07.
For “GGGUACAGGACUCAAGAGUTT against 9130230L23Rik”, the z-score was inactive: -0.628.
With GGUUAAAGGUGCAUUUAAATT against Olfr1448 the z-score was inactive: -0.453.
For GGGAUUGAUUUGACUCACATT against Kars, the z-score was inactive: -2.09.
In the case of GGCCUUCCUUUGUUUUUUUTT against Jup, the z-score is reported as inactive: 0.565.
With GGUGUUUUCUGUGCUGUGATT against Klhdc3 the z-score was inactive: -1.14.
In the case of GGCUCAGUGAAGGCAAGUUTT against Hspb2, the z-score is reported as inactive: -0.481.
With GGGCUGUAUUUCUUUACCCTT against Mrgprb2 the z-score was inactive: 0.494.
In the case of GGGAUCUUGGAGAACCAAATT against Slc39a5, the z-score is reported as inactive: -1.75.
With GGAUUGUGCUGUGAAACAUTT against Pilrb the z-score was inactive: -1.98.
In the case of CCAAACACUAUGGCCUGAUTT against Nsddr, the z-score is reported as inactive: -2.82.
In the case of GCUUCUAGAGACAAAAAAUTT against Mapk8ip3, the z-score is reported as inactive: 1.07.
For GCACCAUAUCCUCUGCAUUTT against Slc5a6, the z-score was inactive: -0.89.
With “GCAUACUUAGGAUACACGCTT against A830005F24Rik” the z-score was inactive: -0.766.
For “GGCGUGUCUGUAAAAUCUUTT against 3110037I16Rik”, the z-score was inactive: -0.611.
With GGUGAUUUGUGAAAGGGUGTT against Rnf38 the z-score was inactive: -0.548.
With GCAAUGUCGCCAAACGUAATT against Zfpn1a1 the z-score was inactive: -0.213.
